Earlier results, collected in patent US20110045032A1 (priority 2001, published 2011).

Columns and labels:
mast cells = details: cited from earlier work
[1] = test system: children with non-allergic perennial rhinitis (NAPR) and allergic perennial rhinitis (APR); details: IB compared with BDP; cited from earlier work
[2] = test system: adult acute asthma exacerbation; details: three trials in adults; 95% CI 0.61-1.06; cited from earlier work

| Structure (SMILES) | decrease in speed of passive calcium ion uptake (mast cells) | nasal bleeding and irritation [1] | relative risk of hospitalization [2] |
| --- | --- | --- | --- |
| CC(C)[N+]1(C)[C@@H]2CC[C@H]1C[C@@H](OC(=O)C(CO)c1ccccc1)C2 (stereo partly shown) [IB, Ipratropium Bromide] | 28% | less nasal bleeding and irritation | 0.80 |
| CN1[C@@H]2CC[C@H]1C[C@@H](OC(=O)C(CO)c1ccccc1)C2 (stereo partly shown) [atropine] | not |  |  |
